This passage reports binding results from article PMC2581630, “S-Nitrosylation of Surfactant Protein-D Controls Inflammatory Function” (PLoS Biology, 2008).

Assay [1] has as its target SP-D in bronchoalveolar lavage (BAL) of Sprague-Dawley rats (rat (endogenous in BAL of Sprague-Dawley rats)) (UniProt P35248). The assay is described as follows: native gel or EMSA; BAL of untreated (control), saline- or bleomycin-treated (8 U/kg) Sprague-Dawley rats, day 4; native gel and Western blot for SP-D.
The target in assay [2] is rat recombinant SP-D (surfactant protein D) (rat) (UniProt P35248). In words: condition: only denatured in SDS with dithiothreitol or β-mercaptoethanol; reducing SDS-PAGE with Western blot; recombinant proteins denatured with mercaptoethanol or dithiothreitol, SDS-PAGE, Western blot with SP-D antibody; both purified.

No constants are given. Whether binding was seen depends on the method and setting. Some results given as binding are weak or reduced against the parent protein; the word gives no strength.

B1: SP-D in bronchoalveolar lavage (BAL) of Sprague-Dawley rats (protein, UniProt P35248 20-374)
chain: AEMKTLSQRSITNTCTLVLCSPTENGLPGRDGRDGREGPRGEKGDPGLPGPMGLSGLPGPRGPVGPKGENGSAGEPGPKGERGLVGPPGSPGISGPAGKEGPSGKQGNIGPQGKPGPKGEAGPKGEVGAPGMQGSAGAKGPAGPKGERGAPGEQGAPGNAGAAGPAGPAGPQGAPGSRGPPGLKGDRGAPGDRGIKGESGLPDSAALRQQMEALNGKLQRLEAAFSRYKKAALFPDGQSVGDKIFRAANSEEPFEDAKEMCRQAGGQLASPRSATENAAVQQLVTAHSKAAFLSMTDVGTEGKFTYPTGEALVYSNWAPGEPNNNGGAENCVEIFTNGQWNDKACGEQRLVICEF
For the molecule B1, in assay [1], the binding result was “binds”.

B2: rat recombinant SP-D (surfactant protein D) (natural protein, UniProt P35248 20-374, looked up)
chain: AEMKTLSQRSITNTCTLVLCSPTENGLPGRDGRDGREGPRGEKGDPGLPGPMGLSGLPGPRGPVGPKGENGSAGEPGPKGERGLVGPPGSPGISGPAGKEGPSGKQGNIGPQGKPGPKGEAGPKGEVGAPGMQGSAGAKGPAGPKGERGAPGEQGAPGNAGAAGPAGPAGPQGAPGSRGPPGLKGDRGAPGDRGIKGESGLPDSAALRQQMEALNGKLQRLEAAFSRYKKAALFPDGQSVGDKIFRAANSEEPFEDAKEMCRQAGGQLASPRSATENAAVQQLVTAHSKAAFLSMTDVGTEGKFTYPTGEALVYSNWAPGEPNNNGGAENCVEIFTNGQWNDKACGEQRLVICEF
notes: surfactant protein D (SP-D), rat, recombinant; It has the N-terminal cysteines 15 and 20 and the head domain, so it is probably the whole mature chain; also called rSP-D; RrSP-D; source: recombinant
Turning to B2, the binding entry in assay [2] is “no binding”.
